Measurements from PubChem BioAssay AID1259354 (Paczesny and Yang Labs, IUPUI and University of Michigan, 2018).
Several values for one entry are separate records, joined by “and”; a condition that tells them apart may be missing. Identical values can stand only once. About 1,800 (2.3%) of roughly 78,000 compounds were called active. Inconclusive results, whose numbers are uncertain, are shown with a selection of clear calls. No stated cut-off is given here; in the data, active means inhibition above about 30%; inconclusive means mostly about 10% to 28%; inactive means weaker than that.

By UniProt entry, the sequences of proteins in these tests, tags left out. Where a name states a change or a piece, a line headed by the entry shows the natural chain unless it says otherwise.
UniProt Q01638: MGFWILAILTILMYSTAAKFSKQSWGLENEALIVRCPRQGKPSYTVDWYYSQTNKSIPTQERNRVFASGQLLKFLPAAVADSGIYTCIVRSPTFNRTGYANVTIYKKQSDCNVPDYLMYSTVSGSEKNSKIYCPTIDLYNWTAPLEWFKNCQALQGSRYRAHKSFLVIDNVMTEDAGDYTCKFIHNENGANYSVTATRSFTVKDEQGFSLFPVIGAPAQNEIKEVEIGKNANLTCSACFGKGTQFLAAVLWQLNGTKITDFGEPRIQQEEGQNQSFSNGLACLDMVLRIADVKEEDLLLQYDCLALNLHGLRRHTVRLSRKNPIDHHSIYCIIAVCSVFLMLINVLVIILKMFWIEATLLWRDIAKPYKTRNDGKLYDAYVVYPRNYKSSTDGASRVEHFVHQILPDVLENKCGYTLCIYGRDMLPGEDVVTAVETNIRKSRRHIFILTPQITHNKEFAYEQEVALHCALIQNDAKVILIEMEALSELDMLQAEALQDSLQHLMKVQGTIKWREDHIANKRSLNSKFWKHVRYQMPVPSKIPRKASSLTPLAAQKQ

What follows are molecules tested against Interleukin-1 receptor-like 1 (Homo sapiens) (UniProt Q01638) (assay: blocks human ST2 binding to IL-33, primary screen, biochemical, AlphaLISA (AID 1259354)). Conditions: AlphaLISA ST2-Fc/biotin-IL-33 interaction, 1 h; at 17 µM, stronger effect = higher value.
With CCc1nc(-c2c(-c3ccccc3)ncn2Cc2n[nH]c3c2CCC3)c(C)[nH]1 the inhibition was inconclusive: 13%.
With CC(C)Oc1ccc(N2CC(C(=O)Nc3cccc(Cl)c3Cl)CC2=O)cc1 (stereo not drawn) the inhibition was inconclusive: 10%.
O=C(CCCn1c2ccccc2c(=O)c2ccccc21)Nc1ccccc1 was tested, and the inhibition was inconclusive: 23%.
For COc1ccc(C2=NN3COc4ccccc4C3C2)cc1 (stereo not drawn), the inhibition was inconclusive: 14%.
Cc1ccn2c(=O)cc(COc3cccc(NC(=O)c4ccccc4)c3)nc2c1 was tested, and the inhibition was “inactive”.
For Cc1[nH]c2ccc(CNC(=O)c3ccccc3-c3ncc[nH]3)cc2c1C, the inhibition was inconclusive: 12%.
Cc1ccc(C2(O)CCN(C(=O)c3ccc4c(c3)nnn4C)CC2)nc1 was tested, and the inhibition was “inactive”.
For CC(C)(C)C(=O)Nc1c(C(=O)Nc2ccc(F)cc2)oc2ccccc12, the inhibition was “inactive”.
COc1ccc(N2CN=C3SC(CO)(CO)C(=O)N3C2)cc1 was tested, and the inhibition was inconclusive: 11%.
For CCC(C)NC(=O)CNC(=O)c1cn(-c2ccccc2OC)c(=O)c2ccccc12 (stereo not drawn), the inhibition was “inactive”.
With COc1ccccc1C(=O)Nc1ccc2c(c1)CN(C(=O)c1ccsc1)CC2 the inhibition was inconclusive: 16%.
For Cc1cccnc1CC(C)N(C)C(=O)c1ccoc1C (stereo not drawn), the inhibition was inconclusive: 16%.
In the case of CC(NC(=O)c1cc(COc2c(F)cccc2F)on1)c1ccccc1Cl (stereo not drawn), the inhibition was inconclusive: 16%.
For Cc1ccc(N2C(=O)[C@H]3C4c5ccccc5C(CO)(c5ccccc54)[C@H]3C2=O)cc1, the inhibition was inconclusive: 15%.
For O=c1c2ccccc2ncn1CCOc1ccc(Cl)cc1Br, the inhibition was “inactive”.
For O=C(Nc1ccc2oc(-c3ccncc3)nc2c1)c1ccc(-c2ccccc2)o1, the inhibition was active: 41%.
With Cc1cc(C)cc(NC(=O)CSc2nc3c(c(=O)n2-c2ccc(F)cc2)SCC3)c1 the inhibition was inconclusive: 10%.
With Cc1ccc(-c2cc(O)c3c(c2)CN(Cc2snnc2C)CCO3)s1 the inhibition was inconclusive: 21%.
With COc1cccc(C2N(c3cc(Cl)ccc3OC)C(=O)C3CCCN32)c1 (stereo not drawn) the inhibition was inconclusive: 13%.
CCCCN(C)S(=O)(=O)c1ccc(C(=O)Nc2nnc(COC)o2)cc1 was tested, and the inhibition was inconclusive: 18%.
For COc1ccc(-n2ncc3c(Nc4ccc(C)cc4C)ncnc32)cc1, the inhibition was inconclusive: 15%.
In the case of CSCc1ccc(C(=O)Nc2cccc3cccnc23)o1, the inhibition was inconclusive: 15%.
With COC(=O)[C@@H](C)NC(=O)[C@H]1CN(C(C)=O)CCN1S(=O)(=O)c1ccccc1 the inhibition was “inactive”.
For CC(=O)N1CCCn2nc(C(=O)NC(C)(C)CNc3cccc(Cl)c3)cc2C1, the inhibition was “inactive”.
For CCN(CCn1cccn1)C(=O)CC1C(=O)NCCN1C1Cc2ccccc2C1 (stereo not drawn), the inhibition was inconclusive: 12%.
With Cc1ccc(Nc2cc(C)nc(N3CCN(S(=O)(=O)c4ccc(C)cc4C)CC3)n2)cc1 the inhibition was inconclusive: 15%.
For Cc1ccccc1Oc1ncccc1CNC(=O)Cc1[nH]nc2ccccc12, the inhibition was “inactive”.
CCCc1ncn(Cc2nc(-c3sccc3C)oc2C)n1 was tested, and the inhibition was “inactive”.
In the case of c1ccc2c(c1)CCC21CCN(Cc2cc3n(n2)CCNC3)CC1, the inhibition was inconclusive: 13%.
In the case of CCn1cc(S(=O)(=O)N2CC(c3cccnc3)C2)c(C)n1, the inhibition was inconclusive: 14%.
With Cc1c(C(=O)NCCCN2CCCC2)oc2ccc(S(=O)(=O)N3CC(C)CC(C)C3)cc12 (stereo not drawn) the inhibition was “inactive”.
For COCC(=O)NC[C@H]1O[C@@H](CO)[C@@H](O)[C@H]1N1CCC[C@@H]1COC, the inhibition was inconclusive: 20%.
CC(C)=CCc1c2c(c(O)c3c1OC1Oc4cc(O)ccc4C1(O)C3=O)C=CC(C)(C)O2 (stereo not drawn) was tested, and the inhibition was inconclusive: 10%.
In the case of O=C(N[C@H]1CCN2C(=O)c3cc(-c4cccs4)ccc3NC(=O)[C@H]12)C1CCCC1, the inhibition was inconclusive: 10%.
In the case of CCC(=O)Nc1cccc(C(=O)N2CCCC2c2ccccn2)c1 (stereo not drawn), the inhibition was “inactive”.
In the case of O=C1CSC(c2ccc([N+](=O)[O-])cc2)N1c1cc(F)ccc1Cl (stereo not drawn), the inhibition was inconclusive: 11%.
CCN(CC)C1C(=O)Nc2ccc(Br)cc2C1c1ccccc1Cl (stereo not drawn) was tested, and the inhibition was inconclusive: 19%.
In the case of Oc1cc(-c2csc3ccccc23)cc2c1OCCN(CCn1cncn1)C2, the inhibition was inconclusive: 12%.
For COc1cc(NS(=O)(=O)c2ccc(NC(=O)c3ccc(OC)c(OC)c3)cc2)nc(OC)n1, the inhibition was “inactive”.
For O=C(Nc1c(-c2ccccc2)nc2ccccn12)c1ccc(F)cc1, the inhibition was inconclusive: 11%.
Nc1n[nH]c(-c2cccc([N+](=O)[O-])c2)n1 was tested, and the inhibition was “inactive”.
For Cc1ccsc1CN(Cc1ccc(Sc2nncn2C)o1)C1CCCC1, the inhibition was inconclusive: 29%.
With O=C(O)c1cccc(NC2SC(=O)N(c3ccccc3)C2=O)c1 (stereo not drawn) the inhibition was inconclusive: 16% and inconclusive: 11%.
CC1=C(C(=O)Nc2ccccc2)C(c2ccccc2)n2ncnc2N1 (stereo not drawn) was tested, and the inhibition was inconclusive: 12%.
CC[C@H]1CN(S(=O)(=O)c2ccc(OC)cc2)CC[C@H]1CC(=O)N1CCC(C(=O)OC)CC1 was tested, and the inhibition was “inactive”.
With COc1ccc(CCCC(=O)Nc2ccc(I)cc2C)cc1 the inhibition was inconclusive: 10%.
For CCn1nc(C)c(CN2CCCC(CNS(=O)(=O)c3ccc(OC)cc3)C2)c1C (stereo not drawn), the inhibition was inconclusive: 14%.
With O=C(NCCSc1c[nH]c2ccccc12)C1CCCC1 the inhibition was inconclusive: 14%.
COc1cc(C)ccc1OCCOc1ccccc1OC(C)C was tested, and the inhibition was “inactive”.
N#Cc1ccc(C(=O)Nc2ccc3n(c2=O)C[C@H]2C[C@@H]3CN(C(=O)c3ccc(-c4ccccc4)cc3)C2)cc1 was tested, and the inhibition was inconclusive: 18%.
With OCC1(CCCc2ccccc2)CCN(Cc2ccc3nonc3c2)CC1 the inhibition was inconclusive: 11%.
With COc1ccc(-c2nnc(NC(=O)c3ccc(Cl)cc3Cl)s2)cc1OC the inhibition was inconclusive: 14%.
For COc1cccc2sc(N3CCCCC3)nc12, the inhibition was “inactive”.
In the case of Cc1ccc(NC(=O)C2C(C=C(Cl)Cl)C2(C)C)c(C)c1 (stereo not drawn), the inhibition was “inactive”.
With Cc1ccn2c(NC3CCCCC3)c(-c3ccc(C)o3)nc2c1 the inhibition was inconclusive: 18%.
O=C(Nc1ccccc1)c1cc([N+](=O)[O-])cc2c1-c1ccc([N+](=O)[O-])cc1C2=O was tested, and the inhibition was inconclusive: 17%.
COc1ccc(-n2nc3ccc(NC(=O)c4cc(Cl)ccc4OC)cc3n2)cc1 was tested, and the inhibition was inconclusive: 26%.
COc1ccc(N2CCN(C(=O)c3ccc4nc5ccc(Cl)cc5c(=O)n4c3)CC2)cc1 was tested, and the inhibition was inconclusive: 10%.
For COCc1cc(C)nc2sc(C(=O)NCc3ccccc3)c(N)c12, the inhibition was inconclusive: 12%.
In the case of N#CC1=C(N)N(c2ccccc2[N+](=O)[O-])C2=C(C(=O)CCC2)C1c1cccc([N+](=O)[O-])c1 (stereo not drawn), the inhibition was active: 31%.
For COc1ccccc1C1Nc2ccc(C(=O)c3ccccc3)cc2NC2=C1C(=O)CC(C)(C)C2 (stereo not drawn), the inhibition was active: 31%.
With O=C(O)c1cc2c(nc1N1CC(c3cccnc3)C1)CCC2 the inhibition was inconclusive: 12%.
For CCCCSc1nnc2c(n1)OC(c1cccc(C)n1)N(C(C)=O)c1ccccc1-2 (stereo not drawn), the inhibition was inconclusive: 18%.
With Cc1ccccc1N1C(=O)c2c(C)nc3ccccc3c2C1=O the inhibition was inconclusive: 24%.
CC(=O)c1ccc(NS(=O)(=O)c2ccccc2[N+](=O)[O-])cc1 was tested, and the inhibition was inconclusive: 19%.
In the case of c1ccc(COC2CCCN(Cc3nc(-c4cnccn4)no3)C2)cc1 (stereo not drawn), the inhibition was inconclusive: 15%.
With O=C1OC(c2ccccc2)=N/C1=C\c1ccc(OC(F)F)cc1 the inhibition was “inactive”.
In the case of Oc1ccc(/C=C/c2nc(-c3ccccc3O)n(-c3ccccc3)n2)c(O)c1, the inhibition was inconclusive: 20%.
With O=C(NCCC1CN(Cc2cccnc2)CCO1)c1ccsc1 (stereo not drawn) the inhibition was inconclusive: 10%.
In the case of CCN(CC)C(=O)C1=C(C)Nc2nc3ccccc3n2C1c1ccc(F)cc1 (stereo not drawn), the inhibition was “inactive”.
With COc1ccc(C2=NN(C(=O)c3ccc(Br)o3)C(c3ccccc3)C2)cc1OC (stereo not drawn) the inhibition was inconclusive: 14%.
For O=C1CCCC2=C1C(c1cccnc1)n1nc(SCc3ccccc3Cl)nc1N2 (stereo not drawn), the inhibition was inconclusive: 21%.
In the case of C=C(C)COc1ccc2cc(-c3nc4ccccc4s3)c(=O)oc2c1, the inhibition was “inactive”.
c1cc(CN(Cc2ccc3nonc3c2)CC2CCCO2)cs1 (stereo not drawn) was tested, and the inhibition was inconclusive: 15%.
For CSc1nc2sc(C)c(C)c2c(=O)n1-c1ccccc1, the inhibition was “inactive”.
For COc1ccc(C(=O)Nc2cc(C)ccc2OCc2cc(=O)n3oc(C)cc3n2)cc1, the inhibition was “inactive”.
Cc1ccc(C(=O)N(c2ccc(C(C)C)cc2)C2C=CS(=O)(=O)C2)cc1 (stereo not drawn) was tested, and the inhibition was “inactive”.
For O=C(c1ccc(NCC2CCCCO2)nc1)N1CCC(Cn2cccn2)CC1 (stereo not drawn), the inhibition was inconclusive: 11%.
For N#Cc1c(N=CN2CCCC2)sc2c1CCCCC2, the inhibition was inconclusive: 26%.
In the case of COc1cc(CN2CCN(c3ccccc3)CC2)cc(OC)c1OC, the inhibition was inconclusive: 13%.
Cc1ccc(-n2c(SCC(=O)Nc3cccc(C)c3)nc3c(c2=O)SCC3)cc1 was tested, and the inhibition was inconclusive: 18%.
With CCC(CC)C(=O)NC1CC(=O)N(c2cccc(OC)c2)C1 (stereo not drawn) the inhibition was inconclusive: 12%.
COCC(=O)Nc1ccc(-c2noc([C@@H]3CCCN3)n2)cn1 was tested, and the inhibition was “inactive”.
Cc1sc2ncnc(-n3nnc4ccccc43)c2c1C was tested, and the inhibition was inconclusive: 10%.
O=C(CC1SC(=Nc2ccccc2)N(c2ccccc2)C1=O)Nc1cccc(C(=O)O)c1 (stereo not drawn) was tested, and the inhibition was inconclusive: 14%.
With CCc1cnc(C)nc1N(C)CCCn1cccn1 the inhibition was inconclusive: 10%.
For O=C(COc1ccccc1Cl)N1CCCCCC1, the inhibition was “inactive”.
With CN(CCc1ccccc1)[C@@H]1[C@H](O)[C@H](CO)O[C@@H]1CNC(=O)Nc1ccccc1 the inhibition was inconclusive: 13%.
With CSCC[C@@H](C(=O)NC1CCCCC1)N1Cc2ccccc2C1=O the inhibition was inconclusive: 12%.
With O=C(C[C@@H]1O[C@H](CNC(=O)C2CC2)[C@@H](O)[C@H]1O)NCCN1CCOCC1 the inhibition was inconclusive: 13%.
O=C(NCCCN1CCOCC1)c1ccc(Cl)cc1Cl was tested, and the inhibition was inconclusive: 20%.
With Cc1ccc(CN(C)C(=O)CC2C(=O)NCCN2Cc2ccc(-c3ccccc3)cc2)o1 (stereo not drawn) the inhibition was “inactive”.
COc1ccccc1C(=O)Nc1ccc(N2C(=O)c3ccc(Cl)cc3C2=O)c(C)c1 was tested, and the inhibition was inconclusive: 17%.
